Results deposited as PubChem BioAssay AID1259271 (Sanger Institute, 2017)

Test: 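Kinase knock-downs that deepen anchor drug effects in colorectal cancer cells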 (follow-up of hits)
System: RKO colorectal cancer cells
Knock-down reagent: single siRNA against human genes
Challenge: anchor drug added to each siRNA well, cetuximab 5 µg/ml, trametinib 10 nM or BYL719 1 µM, compared with DMSO vehicle; exposure length not given
Detection: 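Synergy score for each anchor drug (trametinib 10 nM, cetuximab 5 µg/ml, BYL719 1 µM, against DMSO) and survival versus control pool 2 (non-targeting), each a replicate mean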
Scale: synergy score with BYL719 and synergy score with cetuximab and synergy score with trametinib: higher = stronger synthetic lethality with the drug; viability, trametinib and viability, DMSO: higher = more cells surviving
Call rule: 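Called active if the synergy score passes 0.10 for one or more anchor drugs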
Calls: active = synergy with at least one drug; inactive = no synergy with any drug
Here is a random part of 160 deposited reagents. 124 of them (78%) were called active. 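Each row is one of four siRNAs per gene; gene-level confirmation, requiring two siRNAs in several cell lines, is not included.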 A number with no mark means an inactive call. The numbers tell different reagents against one gene apart. No viability above 1 is reported: the scale is capped. The record does not give: the amount of reagent, the time to read-out.

synergy score with BYL719 | synergy score with cetuximab | synergy score with trametinib | viability, trametinib (fraction of control) | viability, DMSO (fraction of control) | Gene | siRNA no.
0.0336 (active) | 0.0351 | 0.253 | 0.307 | 1 | NLK | 1
0.0362 (active) | 0.402 | 0.31 | 0.25 | 1 | NLK | 2
-0.192 (active) | 0.147 | 0.13 | 0.429 | 1 | NLK | 3
-0.0749 (active) | 0.286 | 0.191 | 0.369 | 1 | NLK | 4
-0.0374 | 0.0207 | 0.0462 | 0.0576 | 0.186 | SF3B1 | 1
0.0141 | 0.0505 | 0.0624 | 0.0578 | 0.215 | SF3B1 | 2
0.0837 | 0.051 | 0.0939 | 0.0689 | 0.291 | SF3B1 | 3
0.00255 | 0.0148 | 0.0152 | 0.09 | 0.188 | SF3B1 | 4
0.0103 (active) | 0.161 | 0.171 | 0.389 | 1 | CDKN2D | 1
0.216 (active) | 0.0411 | 0.243 | 0.317 | 1 | CDKN2D | 2
0.141 (active) | 0.144 | 0.205 | 0.355 | 1 | CDKN2D | 3
0.31 (active) | 0.264 | 0.37 | 0.19 | 1 | CDKN2D | 4
0.0802 (active) | 0.129 | 0.291 | 0.266 | 0.995 | PIK3CA | 1
-0.0403 (active) | 0.19 | 0.298 | 0.205 | 0.9 | PIK3CA | 2
0.0542 (active) | 0.00965 | 0.349 | 0.211 | 1 | PIK3CA | 3
0.0373 (active) | 0.177 | 0.206 | 0.261 | 0.835 | PIK3CA | 4
0.0768 (active) | 0.103 | 0.223 | 0.336 | 1 | PIM1 | 1
0.144 (active) | 0.0994 | 0.112 | 0.448 | 1 | PIM1 | 2
0.0855 (active) | 0.194 | 0.254 | 0.296 | 0.982 | PIM1 | 3
0.206 (active) | 0.0897 | 0.312 | 0.247 | 1 | PIM1 | 4

2 entries already listed, sorted by “viability, DMSO (fraction of control)”, descending.
synergy score with BYL719 | synergy score with cetuximab | synergy score with trametinib | viability, trametinib (fraction of control) | viability, DMSO (fraction of control) | Gene | siRNA no.
0.0802 (active) | 0.129 | 0.291 | 0.266 | 0.995 | PIK3CA | 1
-0.0403 (active) | 0.19 | 0.298 | 0.205 | 0.9 | PIK3CA | 2
